Measurements published in patent publication US7893056B2, “Peptide deformylase inhibitors” (GlaxoSmithKline LLC, priority 2007, dated 2011).
Some results were stated once for a whole list of compounds, not compound by compound.

Tests used:
[1] = target: T1, Staphylococcus aureus PDF (SaPDF) (Staphylococcus aureus, UniProt P68826); assay: PDF IC50 assay (FDH-coupled), S. aureus PDF; assay type: biochemical; conditions: read-out: IC50, inhibition of S. aureus PDF activity
T1 sequence (P68826 1-183): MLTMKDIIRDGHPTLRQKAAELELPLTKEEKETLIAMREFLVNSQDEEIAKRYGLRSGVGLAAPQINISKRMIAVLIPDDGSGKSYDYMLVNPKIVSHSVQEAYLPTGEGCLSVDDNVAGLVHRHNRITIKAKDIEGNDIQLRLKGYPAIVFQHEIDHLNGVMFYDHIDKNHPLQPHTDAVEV

[2] = target: T2, Streptococcus pneumoniae PDF (Streptococcus pneumoniae serotype 4, UniProt Q9F2F0); assay: PDF IC50 assay (FDH-coupled), S. pneumoniae PDF; assay type: biochemical; conditions: read-out: IC50, inhibition of S. pneumoniae PDF activity
T2 sequence (Q9F2F0 1-203): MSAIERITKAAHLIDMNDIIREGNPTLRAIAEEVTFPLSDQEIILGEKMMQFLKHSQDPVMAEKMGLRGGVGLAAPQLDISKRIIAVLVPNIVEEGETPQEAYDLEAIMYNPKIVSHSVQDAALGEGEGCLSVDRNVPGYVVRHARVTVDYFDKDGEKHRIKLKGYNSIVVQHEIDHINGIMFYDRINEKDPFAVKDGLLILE

Structure (SMILES)	IC50 [1]	IC50 [2]
O=CN(O)C[C@@H](CC1CCCC1)C(=O)NNc1nc(Cl)nc(NCCN2CCOCC2)c1F [Example 143, [(2R)-3-[2-(2-Chloro-5-fluoro-6-{[2-(4-morpholinyl)ethyl]amino}-4-pyrimidinyl)hydrazino]-2-(cyclopentylmethyl)-3-oxopropyl]hydroxyformamide]	≤ 100 nM	≤ 100 nM
Cc1nc(NNC(=O)[C@H](CC2CCCC2)CN(O)C=O)c(F)c(N2C[C@@H](C)N(C)C[C@@H]2C)n1 (single isomer, unassigned) [Example 162]	≤ 100 nM	≤ 100 nM
CN1C[C@@H]2C[C@H]1CN2c1nc(Cl)nc(NNC(=O)[C@H](CC2CCCC2)CN(O)C=O)c1F [Example 7, [(2R)-3-(2-{2-Chloro-5-fluoro-6-[(1S,4S)-5-methyl-2,5-diazabicyclo[2.2.1]hept-2-yl]-4-pyrimidinyl}hydrazino)-2-(cyclopentylmethyl)-3-oxopropyl]hydroxyformamide]	≤ 100 nM	≤ 100 nM
CSc1nc(NNC(=O)[C@H](CC2CCCC2)CN(O)C=O)c(F)c(N2CCC2)n1 [Example 3, [(2R)-3-{2-[6-(1-Azetidinyl)-5-fluoro-2-(methylthio)-4-pyrimidinyl]hydrazino}-2-(cyclopentylmethyl)-3-oxopropyl]hydroxyformamide]	≤ 100 nM	≤ 100 nM
CO[C@@H]1CCN(c2nc(C)nc(NNC(=O)[C@H](CC3CCCC3)CN(O)C=O)c2F)C1 [Example 14, [(2R)-2-(Cyclopentylmethyl)-3-(2-{5-fluoro-2-methyl-6-[(3R)-3-(methyloxy)-1-pyrrolidinyl]-4-pyrimidinyl}hydrazino)-3-oxopropyl]hydroxyformamide]	≤ 100 nM	≤ 100 nM
O=CN(O)C[C@@H](CC1CCCC1)C(=O)NNc1nc(C(F)F)nc(N2CCN3CCC[C@H]3C2)c1F [Example 106, [(2R)-2-(Cyclopentylmethyl)-3-(2-{2-(difluoromethyl)-5-fluoro-6-[(8aS)-hexahydropyrrolo[1,2-a]pyrazin-2(1H)-yl]-4-pyrimidinyl}hydrazino)-3-oxopropyl]hydroxyformamide]	≤ 100 nM	≤ 100 nM
Cc1nc(NNC(=O)[C@H](CC2CCCC2)CN(O)C=O)c(F)c(NC2CCCC2)n1 [Example 21, [(2R)-3-{2-[6-(Cyclopentylamino)-5-fluoro-2-methyl-4-pyrimidinyl]hydrazino}-2-(cyclopentylmethyl)-3-oxopropyl]hydroxyformamide]	≤ 100 nM	≤ 100 nM
CN(Cc1csc(N)n1)c1nc(Cl)nc(NNC(=O)[C@H](CC2CCCC2)CN(O)C=O)c1F [Example 223, N-[(2R)-3-[2-(6-{[(2-Amino-1,3-thiazol-4-yl)methyl](methyl)amino}-2-chloro-5-fluoro-4-pyrimidinyl)hydrazino]-2-(cyclopentylmethyl)-3-oxopropyl]-N-hydroxyformamide]	≤ 100 nM	≤ 100 nM
CCN(CC)C[C@@H]1CCCN1c1nc(Cl)nc(NNC(=O)[C@H](CC2CCCC2)CN(O)C=O)c1F [Example 256, [(2R)-3-[2-(2-Chloro-6-{(2S)-2-[(diethylamino)methyl]-1-pyrrolidinyl}-5-fluoro-4-pyrimidinyl)hydrazino]-2-(cyclopentylmethyl)-3-oxopropyl]hydroxyformamide]	≤ 100 nM	≤ 100 nM
O=CN(O)C[C@@H](CC1CCCC1)C(=O)NNc1nc(Cl)nc(NC2CCOCC2)c1F [Example 179, [(2R)-3-{2-[2-Chloro-5-fluoro-6-(tetrahydro-2H-pyran-4-ylamino)-4-pyrimidinyl]hydrazino}-2-(cyclopentylmethyl)-3-oxopropyl]hydroxyformamide]	≤ 100 nM	≤ 100 nM
CN(C)C12CC1CN(c1nc(Cl)nc(NNC(=O)[C@H](CC3CCCC3)CN(O)C=O)c1F)C2 (stereo partly drawn) [Example 161, [(2R)-3-(2-{2-Chloro-6-[1-(dimethylamino)-3-azabicyclo[3.1.0]hex-3-yl]-5-fluoro-4-pyrimidinyl}hydrazino)-2-(cyclopentylmethyl)-3-oxopropyl]hydroxyformamide]	≤ 100 nM	≤ 100 nM
C[C@H]1CN(CCO)CCN1c1nc(Cl)nc(NNC(=O)[C@H](CC2CCCC2)CN(O)C=O)c1F [Example 208, [(2R)-3-(2-{2-Chloro-5-fluoro-6-[4-(2-hydroxyethyl)-1-piperazinyl]-4-pyrimidinyl}hydrazino)-2-(cyclopentylmethyl)-3-oxopropyl]hydroxyformamide]	≤ 100 nM	≤ 100 nM
CSc1nc(NNC(=O)[C@H](CC2CCCC2)CN(O)C=O)c(F)c(N2CCN3CCOC[C@@H]3C2)n1 [Example 231, ((2R)-2-(Cyclopentylmethyl)-3-{2-[5-fluoro-6-[(9aS)-hexahydropyrazino[2,1-c][1,4]oxazin-8(1H)-yl]-2-(methylthio)-4-pyrimidinyl]hydrazino}-3-oxopropyl)hydroxyformamide]	≤ 100 nM	≤ 100 nM
CN1CCCN1c1nc(Cl)nc(NNC(=O)[C@H](CC2CCCC2)CN(O)C=O)c1F [Example 246, [(2R)-3-{2-[2-Chloro-5-fluoro-6-(2-methyl-1-pyrazolidinyl)-4-pyrimidinyl]hydrazino}-2-(cyclopentylmethyl)-3-oxopropyl]hydroxyformamide]	≤ 100 nM	≤ 100 nM
O=CN(O)C[C@@H](CC1CCCC1)C(=O)NNc1nc(Cl)nc(N2CCC[C@@H]2CN2CCOCC2)c1F [Example 229, [(2R)-3-(2-{2-Chloro-5-fluoro-6-[(2R)-2-(4-morpholinylmethyl)-1-pyrrolidinyl]-4-pyrimidinyl}hydrazino)-2-(cyclopentylmethyl)-3-oxopropyl]hydroxyformamide]	≤ 100 nM	≤ 100 nM
Cc1nc(NNC(=O)[C@H](CC2CCCC2)CN(O)C=O)c(F)c(N[C@H]2CCCCN(C)C2=O)n1 [Example 85, {(2R)-2-(Cyclopentylmethyl)-3-[2-(5-fluoro-2-methyl-6-{[(3S)-1-methyl-2-oxohexahydro-1H-azepin-3-yl]amino}-4-pyrimidinyl)hydrazino]-3-oxopropyl}hydroxyformamide]	≤ 100 nM	≤ 100 nM
C[C@@H]1COCCN1c1nc(Cl)nc(NNC(=O)[C@H](CC2CCCC2)CN(O)C=O)c1F [Example 236, [(2R)-3-(2-{2-Chloro-5-fluoro-6-[(3R)-3-methyl-4-morpholinyl]-4-pyrimidinyl}hydrazino)-2-(cyclopentylmethyl)-3-oxopropyl]hydroxyformamide]	≤ 100 nM	≤ 100 nM
N#CCCN(c1nc(Cl)nc(NNC(=O)[C@H](CC2CCCC2)CN(O)C=O)c1F)C1CC1 [Example 239, [(2R)-3-(2-{2-Chloro-6-[(2-cyanoethyl)(cyclopropyl)amino]-5-fluoro-4-pyrimidinyl}hydrazino)-2-(cyclopentylmethyl)-3-oxopropyl]hydroxyformamide]	≤ 100 nM	≤ 100 nM
C[C@@H]1[C@H](C)N(c2nc(Cl)nc(NNC(=O)[C@H](CC3CCCC3)CN(O)C=O)c2F)CCN1C [Example 175, N-[(2R)-3-(2-{2-Chloro-5-fluoro-6-[(2S,3R)-2,3,4-trimethyl-1-piperazinyl]-4-pyrimidinyl}hydrazino)-2-(cyclopentylmethyl)-3-oxopropyl]-N-hydroxyformamide]	≤ 100 nM	≤ 100 nM
CCC1(N(C)C)CN(c2nc(SC)nc(NNC(=O)[C@H](CC3CCCC3)CN(O)C=O)c2F)C1 [Example 212, ((2R)-2-(Cyclopentylmethyl)-3-{2-[6-[3-(dimethylamino)-3-ethyl-1-azetidinyl]-5-fluoro-2-(methylthio)-4-pyrimidinyl]hydrazino}-3-oxopropyl)hydroxyformamide]	≤ 100 nM	≤ 100 nM
CN(C)[C@@H]1CCCN(c2nc(Cl)nc(NNC(=O)[C@H](CC3CCCC3)CN(O)C=O)c2F)C1 [Example 118, [(2R)-3-(2-{2-Chloro-6-[(3R)-3-(dimethylamino)-1-piperidinyl]-5-fluoro-4-pyrimidinyl}hydrazino)-2-(cyclopentylmethyl)-3-oxopropyl]hydroxyformamide]	≤ 100 nM	≤ 100 nM
COC1CN(c2nc(C)nc(NNC(=O)[C@H](CC3CCCC3)CN(O)C=O)c2F)C1 [Example 13, [(2R)-2-(Cyclopentylmethyl)-3-(2-{5-fluoro-2-methyl-6-[3-(methyloxy)-1-azetidinyl]-4-pyrimidinyl}hydrazino)-3-oxopropyl]hydroxyformamide]	≤ 100 nM	≤ 100 nM
CCc1nc(NNC(=O)[C@H](CC2CCCC2)CN(O)C=O)c(F)c(N2CCCO2)n1 [Example 26, N-[(2R)-2-(Cyclopentylmethyl)-3-{2-[2-ethyl-5-fluoro-6-(2-isoxazolidinyl)-4-pyrimidinyl]hydrazino}-3-oxopropyl]-N-hydroxyformamide]	≤ 100 nM	≤ 100 nM
C[C@H]1COCCN1c1nc(Cl)nc(NNC(=O)[C@H](CC2CCCC2)CN(O)C=O)c1F [Example 241, [(2R)-3-(2-{2-Chloro-5-fluoro-6-[(3S)-3-methyl-4-morpholinyl]-4-pyrimidinyl}hydrazino)-2-(cyclopentylmethyl)-3-oxopropyl]hydroxyformamide]	≤ 100 nM	≤ 100 nM
CSc1nc(NNC(=O)[C@H](CC2CCCC2)CN(O)C=O)c(F)c(N2CCC3CCCCC3C2)n1 (mixture of isomers) [Example 134, ((2R)-2-(Cyclopentylmethyl)-3-{2-[5-fluoro-2-(methylthio)-6-(octahydro-2(1H)-isoquinolinyl)-4-pyrimidinyl]hydrazino}-3-oxopropyl)hydroxyformamide]	≤ 100 nM	≤ 100 nM
